Reference: the supplement of paper PMC10849652
Some of the results follow. Residues, ends and D or L forms follow the SMILES beside them. *: point of attachment. Cbz = O=C(OCc1ccccc1)*

The chains behind the UniProt entries cited, without tags or fusion partners. Where a name states a change or a piece, a line headed by the entry shows the natural chain unless it says otherwise.
UniProt P00846: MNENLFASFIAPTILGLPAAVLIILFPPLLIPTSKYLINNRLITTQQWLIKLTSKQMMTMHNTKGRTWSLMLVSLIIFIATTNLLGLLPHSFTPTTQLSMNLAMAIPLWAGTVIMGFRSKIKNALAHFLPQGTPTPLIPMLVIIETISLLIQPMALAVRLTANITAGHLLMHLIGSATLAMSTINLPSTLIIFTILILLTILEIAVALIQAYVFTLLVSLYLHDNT
UniProt Q9Y2Z2: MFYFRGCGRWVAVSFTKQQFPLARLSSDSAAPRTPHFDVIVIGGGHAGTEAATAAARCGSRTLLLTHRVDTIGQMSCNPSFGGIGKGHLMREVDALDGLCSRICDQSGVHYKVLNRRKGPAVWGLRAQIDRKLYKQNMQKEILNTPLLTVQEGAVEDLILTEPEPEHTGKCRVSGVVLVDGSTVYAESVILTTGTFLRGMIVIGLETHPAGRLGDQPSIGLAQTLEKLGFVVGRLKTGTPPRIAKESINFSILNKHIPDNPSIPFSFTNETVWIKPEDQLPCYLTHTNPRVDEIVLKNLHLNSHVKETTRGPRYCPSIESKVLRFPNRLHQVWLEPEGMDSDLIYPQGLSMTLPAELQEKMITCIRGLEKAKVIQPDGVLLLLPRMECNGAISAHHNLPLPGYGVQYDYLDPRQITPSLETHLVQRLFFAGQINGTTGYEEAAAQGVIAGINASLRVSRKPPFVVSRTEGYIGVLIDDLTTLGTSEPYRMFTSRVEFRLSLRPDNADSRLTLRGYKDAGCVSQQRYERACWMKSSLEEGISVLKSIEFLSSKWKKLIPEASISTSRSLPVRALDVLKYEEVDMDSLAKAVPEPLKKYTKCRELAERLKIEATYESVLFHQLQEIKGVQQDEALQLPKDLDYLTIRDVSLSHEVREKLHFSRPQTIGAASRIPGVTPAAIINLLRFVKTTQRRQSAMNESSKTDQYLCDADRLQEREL
UniProt Q68DK7: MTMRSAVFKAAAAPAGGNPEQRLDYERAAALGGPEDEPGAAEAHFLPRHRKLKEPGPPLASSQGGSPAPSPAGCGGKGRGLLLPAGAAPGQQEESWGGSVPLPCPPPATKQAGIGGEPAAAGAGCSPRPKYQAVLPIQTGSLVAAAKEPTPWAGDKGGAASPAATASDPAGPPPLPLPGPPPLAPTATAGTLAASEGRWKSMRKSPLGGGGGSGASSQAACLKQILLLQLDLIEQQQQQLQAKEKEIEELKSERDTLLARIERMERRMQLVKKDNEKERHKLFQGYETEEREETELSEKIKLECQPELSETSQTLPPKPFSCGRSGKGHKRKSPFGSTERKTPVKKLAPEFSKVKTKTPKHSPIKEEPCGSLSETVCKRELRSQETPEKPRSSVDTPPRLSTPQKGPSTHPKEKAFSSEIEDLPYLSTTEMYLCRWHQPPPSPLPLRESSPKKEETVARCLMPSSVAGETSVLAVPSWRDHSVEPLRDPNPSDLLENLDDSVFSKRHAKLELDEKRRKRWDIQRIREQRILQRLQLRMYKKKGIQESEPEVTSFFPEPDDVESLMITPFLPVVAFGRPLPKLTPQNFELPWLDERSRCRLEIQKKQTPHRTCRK
UniProt Q9UGC7: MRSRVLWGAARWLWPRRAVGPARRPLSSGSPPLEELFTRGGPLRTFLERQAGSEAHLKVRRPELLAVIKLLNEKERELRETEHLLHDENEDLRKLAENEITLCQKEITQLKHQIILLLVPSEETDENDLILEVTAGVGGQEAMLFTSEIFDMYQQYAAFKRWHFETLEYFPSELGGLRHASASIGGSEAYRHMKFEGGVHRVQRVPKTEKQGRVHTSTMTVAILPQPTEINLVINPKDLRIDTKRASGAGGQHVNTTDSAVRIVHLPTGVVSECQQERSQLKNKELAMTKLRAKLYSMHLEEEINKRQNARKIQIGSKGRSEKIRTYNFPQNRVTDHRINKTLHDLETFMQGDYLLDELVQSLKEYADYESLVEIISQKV
UniProt P84157: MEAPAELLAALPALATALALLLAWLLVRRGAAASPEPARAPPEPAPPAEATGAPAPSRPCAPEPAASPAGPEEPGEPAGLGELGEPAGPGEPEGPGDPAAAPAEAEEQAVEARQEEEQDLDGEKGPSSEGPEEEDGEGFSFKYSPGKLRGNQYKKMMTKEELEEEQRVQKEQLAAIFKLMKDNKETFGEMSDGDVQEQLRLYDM
UniProt Q9BRK3: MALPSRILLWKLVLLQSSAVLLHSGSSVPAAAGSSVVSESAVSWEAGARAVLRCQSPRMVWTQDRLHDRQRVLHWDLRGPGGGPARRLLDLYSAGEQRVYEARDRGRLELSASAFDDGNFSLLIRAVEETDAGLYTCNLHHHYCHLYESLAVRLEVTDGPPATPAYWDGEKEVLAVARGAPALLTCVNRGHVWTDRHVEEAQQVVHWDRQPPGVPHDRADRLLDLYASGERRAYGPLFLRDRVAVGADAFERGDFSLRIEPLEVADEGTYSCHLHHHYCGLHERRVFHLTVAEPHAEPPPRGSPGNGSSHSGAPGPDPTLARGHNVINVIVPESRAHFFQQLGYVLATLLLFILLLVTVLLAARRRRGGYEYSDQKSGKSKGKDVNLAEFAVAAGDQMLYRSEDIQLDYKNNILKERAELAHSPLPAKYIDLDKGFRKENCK
UniProt P53602: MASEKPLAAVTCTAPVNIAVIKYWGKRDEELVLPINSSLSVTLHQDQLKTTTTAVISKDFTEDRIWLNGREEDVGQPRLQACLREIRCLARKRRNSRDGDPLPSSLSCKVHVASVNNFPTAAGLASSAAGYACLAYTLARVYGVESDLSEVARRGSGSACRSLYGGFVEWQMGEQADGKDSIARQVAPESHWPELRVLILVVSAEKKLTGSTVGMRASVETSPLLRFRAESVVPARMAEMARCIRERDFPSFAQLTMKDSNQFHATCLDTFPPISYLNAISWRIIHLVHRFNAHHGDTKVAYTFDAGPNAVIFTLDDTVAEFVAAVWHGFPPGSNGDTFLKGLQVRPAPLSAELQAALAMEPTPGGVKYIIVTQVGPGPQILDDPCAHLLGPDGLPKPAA
UniProt B2RTY4: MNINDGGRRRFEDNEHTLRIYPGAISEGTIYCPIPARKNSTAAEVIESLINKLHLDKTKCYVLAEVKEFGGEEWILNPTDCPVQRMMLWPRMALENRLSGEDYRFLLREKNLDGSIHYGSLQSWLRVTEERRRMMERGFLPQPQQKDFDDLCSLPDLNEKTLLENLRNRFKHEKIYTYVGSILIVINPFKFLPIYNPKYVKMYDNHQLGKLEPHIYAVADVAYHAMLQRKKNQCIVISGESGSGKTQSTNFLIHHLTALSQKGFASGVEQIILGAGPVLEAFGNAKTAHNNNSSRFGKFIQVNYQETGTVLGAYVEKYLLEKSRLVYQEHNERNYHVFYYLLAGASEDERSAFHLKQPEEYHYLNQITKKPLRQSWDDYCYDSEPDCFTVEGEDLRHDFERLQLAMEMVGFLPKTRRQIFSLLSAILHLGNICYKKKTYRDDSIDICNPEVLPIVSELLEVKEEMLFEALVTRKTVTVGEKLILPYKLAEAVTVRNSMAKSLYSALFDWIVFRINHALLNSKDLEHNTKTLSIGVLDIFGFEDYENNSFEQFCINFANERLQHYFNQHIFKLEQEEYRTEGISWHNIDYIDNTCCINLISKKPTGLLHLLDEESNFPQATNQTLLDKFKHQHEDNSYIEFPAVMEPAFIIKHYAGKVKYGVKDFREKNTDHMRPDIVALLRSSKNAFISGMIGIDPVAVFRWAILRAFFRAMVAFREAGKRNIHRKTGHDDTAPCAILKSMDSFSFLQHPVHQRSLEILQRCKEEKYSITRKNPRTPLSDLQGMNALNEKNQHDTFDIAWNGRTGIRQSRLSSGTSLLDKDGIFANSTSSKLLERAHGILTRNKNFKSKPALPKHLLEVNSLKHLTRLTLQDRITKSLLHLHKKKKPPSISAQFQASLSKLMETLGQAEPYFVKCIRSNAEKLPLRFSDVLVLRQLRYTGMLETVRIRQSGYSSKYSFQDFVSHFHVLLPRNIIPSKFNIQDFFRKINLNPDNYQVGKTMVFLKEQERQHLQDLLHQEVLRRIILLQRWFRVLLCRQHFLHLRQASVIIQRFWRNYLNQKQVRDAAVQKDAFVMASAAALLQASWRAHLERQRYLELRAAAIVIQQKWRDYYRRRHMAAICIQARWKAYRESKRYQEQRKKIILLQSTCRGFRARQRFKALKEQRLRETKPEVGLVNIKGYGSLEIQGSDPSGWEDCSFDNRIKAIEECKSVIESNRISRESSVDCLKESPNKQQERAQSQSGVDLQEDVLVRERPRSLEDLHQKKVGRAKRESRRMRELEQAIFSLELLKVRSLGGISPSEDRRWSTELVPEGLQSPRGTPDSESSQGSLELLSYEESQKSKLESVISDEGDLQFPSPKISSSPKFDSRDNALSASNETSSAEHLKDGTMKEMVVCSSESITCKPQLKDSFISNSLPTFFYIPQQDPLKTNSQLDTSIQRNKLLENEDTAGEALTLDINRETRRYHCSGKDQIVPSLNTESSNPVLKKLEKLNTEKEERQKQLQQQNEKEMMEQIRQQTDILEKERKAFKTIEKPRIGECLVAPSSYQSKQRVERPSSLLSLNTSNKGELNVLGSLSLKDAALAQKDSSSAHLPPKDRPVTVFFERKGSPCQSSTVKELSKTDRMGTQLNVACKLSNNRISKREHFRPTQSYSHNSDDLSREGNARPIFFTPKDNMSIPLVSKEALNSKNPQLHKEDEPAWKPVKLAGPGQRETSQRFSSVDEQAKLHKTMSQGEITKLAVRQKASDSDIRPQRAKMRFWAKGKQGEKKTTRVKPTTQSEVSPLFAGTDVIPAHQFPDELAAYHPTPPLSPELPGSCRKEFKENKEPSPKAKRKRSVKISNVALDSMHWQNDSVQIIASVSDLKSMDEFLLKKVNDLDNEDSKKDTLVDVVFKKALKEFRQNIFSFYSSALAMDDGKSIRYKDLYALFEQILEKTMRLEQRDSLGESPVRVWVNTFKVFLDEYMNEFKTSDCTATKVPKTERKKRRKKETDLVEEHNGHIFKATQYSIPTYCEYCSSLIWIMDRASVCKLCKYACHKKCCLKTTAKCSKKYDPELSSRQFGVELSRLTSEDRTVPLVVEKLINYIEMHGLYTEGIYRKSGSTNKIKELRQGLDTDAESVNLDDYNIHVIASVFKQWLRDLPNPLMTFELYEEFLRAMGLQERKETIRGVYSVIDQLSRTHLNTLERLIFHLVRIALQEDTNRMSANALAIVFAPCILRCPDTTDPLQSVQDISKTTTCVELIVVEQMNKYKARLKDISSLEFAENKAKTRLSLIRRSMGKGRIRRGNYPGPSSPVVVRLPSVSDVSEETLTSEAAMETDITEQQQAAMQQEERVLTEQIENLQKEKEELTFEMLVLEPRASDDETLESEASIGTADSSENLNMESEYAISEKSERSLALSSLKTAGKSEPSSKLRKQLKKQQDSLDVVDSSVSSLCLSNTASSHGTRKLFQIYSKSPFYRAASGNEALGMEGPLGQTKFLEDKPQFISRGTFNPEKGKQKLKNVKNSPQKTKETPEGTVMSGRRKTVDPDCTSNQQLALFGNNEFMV
UniProt Q8NCE2: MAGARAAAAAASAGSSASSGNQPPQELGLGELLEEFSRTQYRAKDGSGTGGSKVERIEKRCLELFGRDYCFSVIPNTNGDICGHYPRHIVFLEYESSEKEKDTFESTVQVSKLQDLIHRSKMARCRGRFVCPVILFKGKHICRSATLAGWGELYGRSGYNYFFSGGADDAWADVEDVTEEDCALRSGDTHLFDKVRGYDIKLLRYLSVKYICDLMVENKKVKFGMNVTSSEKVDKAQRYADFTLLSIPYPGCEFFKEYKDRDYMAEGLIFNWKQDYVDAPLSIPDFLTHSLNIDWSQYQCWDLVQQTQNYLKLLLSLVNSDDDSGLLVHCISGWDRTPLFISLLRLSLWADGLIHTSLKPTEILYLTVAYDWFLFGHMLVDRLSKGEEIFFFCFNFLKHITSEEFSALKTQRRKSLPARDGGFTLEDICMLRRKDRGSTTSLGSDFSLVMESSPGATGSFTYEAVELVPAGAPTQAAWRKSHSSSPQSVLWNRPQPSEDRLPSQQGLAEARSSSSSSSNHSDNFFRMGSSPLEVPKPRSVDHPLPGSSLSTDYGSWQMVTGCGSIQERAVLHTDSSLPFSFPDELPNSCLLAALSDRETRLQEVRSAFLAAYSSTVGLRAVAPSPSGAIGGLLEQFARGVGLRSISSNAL
UniProt Q7Z6M4: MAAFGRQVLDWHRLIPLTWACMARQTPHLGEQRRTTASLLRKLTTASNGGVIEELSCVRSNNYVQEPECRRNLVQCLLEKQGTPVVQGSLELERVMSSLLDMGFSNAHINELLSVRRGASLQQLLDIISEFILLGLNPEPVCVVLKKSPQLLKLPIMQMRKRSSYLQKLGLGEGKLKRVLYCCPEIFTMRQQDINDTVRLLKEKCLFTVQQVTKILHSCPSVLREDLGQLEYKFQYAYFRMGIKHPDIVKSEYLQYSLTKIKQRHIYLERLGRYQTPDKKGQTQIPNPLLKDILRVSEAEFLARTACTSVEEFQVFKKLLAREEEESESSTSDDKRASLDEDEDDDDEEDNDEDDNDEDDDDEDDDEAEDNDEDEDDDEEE

Experiments:
Assay in all cases: log2 fold change, soluble protein after heating vs DMSO (PISA); higher = thermal stabilisation; K562 cells, 10 uM, 30 min; active = over 0.2 and 3.5 SD of the protein, either way, in both replicates (recomputed)
[1] = compound: C#Cc1cccc(Nc2ncnc3cc(OCCOC)c(OCCOC)cc23)c1 [erlotinib]
How it was run: (§1)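 K562 cells at 2×10^6 cells/mL were treated with 10 μM compound for 30 min. Aliquots were heated for 3 min across 48°C-58°C, pooled, and extracted in PBS with 0.5% NP-40 at 4°C; soluble protein was the supernatant after 21,000xg for 90 min. Soluble protein was quantified by TMTpro 16plex LC-MS/MS with channel sums equalised, and reported as log2 fold change in thermal stability against DMSO controls, with values from duplicates.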

[2] = compound: C/C(=N\NC(=O)C1=CC(=CC=C1)S(=O)(=O)N2CCOCC2)/C3=C(C=CC(=C3)Cl)O
How it was run: as §1

[3] = compound: C1=CC(=C(C=C1Cl)C2=NC3=NC=CN=C3C(=N2)NC4=CC=NC=C4)F
How it was run: as §1

[4] = compound: C1=CC(=CC=C1C2=NC3=C(N2)C=C(C=C3)C(=O)N)OC4=CC=C(C=C4)Cl
How it was run: as §1

[5] = compound: C1=CC2=C(C=CC(=C2)/C=C\3/C(=O)NC(=NCC4=CC=CS4)S3)N=C1
How it was run: as §1

[6] = compound: C1=CC2=NC=CN=C2C=C1/C=C/3\C(=O)NC(=O)S3
How it was run: as §1

[7] = compound: C1=CC=C(C=C1)C2=NC(=C(N2)C3=CC=NC=C3)C4=CC(=C(C=C4)Cl)O
How it was run: as §1

[8] = compound: C1=CC=C2C(=C1)C3=NNC4=CC=CC(=C43)C2=O
How it was run: as §1

[9] = compound: C1CCN(C1)C(=O)NC2=CC=CC(=C2)NC3=NC=C(C(=N3)NCCC4=CN=CN4)Br
How it was run: as §1

[10] = compound: C1CN(CCC1(CC2=CC=C(C=C2)Cl)N)C3=NC=NC4=C3C=CN4
How it was run: as §1

[11] = compound: C1COCCN1CCN2C3=CC=CC=C3N=C2NC(=O)C4=CC(=CC=C4)[N+](=O)[O-] [IRAK-1-4 Inhibitor I]
How it was run: as §1

[12] = compound: C=CC(=O)N1CCC[C@@H](n2nc(-c3ccc(Oc4ccccc4)cc3)c3c(N)ncnc32)C1 [ibrutinib]
How it was run: as §1

[13] = compound: CC(=O)c1cnc2ccc(-c3cc(Cl)c(O)c(Cl)c3)nc2c1N[C@H]1CC[C@H](CN(C)C)CC1
How it was run: as §1

[14] = compound: CC(C)(C)Cn1c(N)nc2ccc(-c3[nH]c(C(C)(C)C)nc3-c3ccc(F)cc3)nc21 [ralimetinib]
How it was run: as §1

[15] = compound: CC(C)(O)CC(=O)NCCn1ccc2ncnc(Nc3ccc(Oc4cccc(C(F)(F)F)c4)c(Cl)c3)c21
How it was run: as §1

[16] = compound: CC(C)C1=C2N=C(C=C(N2N=C1)NCC3=CC=CC=C3)NCCCCCCN
How it was run: as §1

[17] = compound: CC(C)C[C@@H](C=O)NC(=O)[C@H](CC(C)C)NC(=O)[C@H](CC(C)C)NC(=O)OCc1ccccc1
How it was run: as §1

[18] = compound: CC(C)N(C[C@H]1O[C@@H](n2cnc3c(N)ncnc32)[C@H](O)[C@@H]1O)[C@H]1C[C@@H](CCc2nc3cc(C(C)(C)C)ccc3[nH]2)C1 [pinometostat]
How it was run: as §1

[19] = compound: CC1=C(C2=C(C=C1)C(=O)C3=CC=CC=C3N2CCCN)C
How it was run: as §1

[20] = compound: CC1=C(C(CC(=O)N1)C2=CC=C(C=C2)C(F)(F)F)C(=O)NC3=C(C=C4C(=C3)C=NN4)F
How it was run: as §1

Measured: log2 fold change

MT-ATP6 (UniProt P00846)
inactive: [1] 0.207 | [2] 0.146 | [3] -0.042 | [4] -0.07 | [5] -0.078 | [6] -0.391 | [7] -0.048 | [8] -0.017 | [9] -0.073 | [10] -0.042 | [11] 0 | [12] -0.68 | [13] -0.178 | [14] -0.178 | [15] -0.033 | [16] -0.06 | [17] -0.165 | [18] -0.162 | [19] -0.072

MTO1 isoform 6 (UniProt Q9Y2Z2)
inactive: [1] 0.085 | [2] 0.004 | [3] 0.071 | [4] -0.021 | [5] 0.087 | [7] 0.034 | [8] 0.149 | [9] -0.023 | [10] 0.058 | [11] -0.011 | [13] -0.051 | [14] -0.004 | [15] -0.125 | [16] -0.044 | [17] 0.07 | [18] 0.104 | [20] 0.007 | [19] 0.095

MSL1 (UniProt Q68DK7)
inactive: [1] 0.185 | [3] 0.106 | [4] -0.193 | [5] 0.069 | [6] -0.033 | [7] 0.066 | [8] -0.026 | [11] 0.007 | [12] 0.01 | [13] -0.039 | [14] 0.184 | [15] -0.086 | [16] 0.071 | [17] -0.005 | [18] -0.1
active: [2] -0.603

Copied from above (2 entries):
MTO1 isoform 6 (UniProt Q9Y2Z2)
inactive: [1] 0.085 | [2] 0.004 | [3] 0.071 | [4] -0.021 | [5] 0.087 | [7] 0.034 | [8] 0.149 | [9] -0.023 | [10] 0.058 | [11] -0.011 | [13] -0.051 | [14] -0.004 | [15] -0.125 | [16] -0.044 | [17] 0.07 | [18] 0.104 | [20] 0.007 | [19] 0.095

MSL1 (UniProt Q68DK7)
inactive: [1] 0.185 | [3] 0.106 | [4] -0.193 | [5] 0.069 | [6] -0.033 | [7] 0.066 | [8] -0.026 | [11] 0.007 | [12] 0.01 | [13] -0.039 | [14] 0.184 | [15] -0.086 | [16] 0.071 | [17] -0.005 | [18] -0.1
active: [2] -0.603

Continued.

MRPS6 (UniProt P82932)
inactive: [1] 0.001 | [2] 0.006 | [3] 0.006 | [4] 0.088 | [5] 0.01 | [6] 0.112 | [7] 0.128 | [8] 0.079 | [9] -0.039 | [10] -0.093 | [11] -0.193 | [12] -0.007 | [13] -0.079 | [14] 0.012 | [15] -0.158 | [16] -0.003 | [17] -0.009 | [18] -0.007 | [19] -0.139

MTRF1L (UniProt Q9UGC7)
inactive: [1] 0.038 | [2] 0.02 | [3] -0.099 | [4] -0.036 | [5] -0.007 | [6] 0.007 | [7] -0.01 | [8] 0.01 | [9] 0.073 | [10] 0.152 | [12] -0.008 | [13] -0.014 | [14] 0.061 | [15] 0.125 | [16] -0.028 | [17] -0.018 | [20] -0.037 | [19] -0.014

MRPS26 (UniProt Q9BYN8)
inactive: [1] -0.081 | [2] 0.004 | [3] 0.004 | [4] 0.157 | [5] 0.038 | [6] 0.088 | [7] -0.042 | [8] 0.06 | [9] -0.19 | [10] 0.024 | [11] -0.09 | [12] 0.008 | [13] 0.007 | [14] -0.049 | [15] -0.143 | [16] 0.03 | [17] 0.137 | [18] 0.037 | [19] -0.133

MXRA7 (UniProt P84157)
inactive: [1] -0.052 | [2] -0.109 | [3] -0.083 | [4] 0.047 | [5] -0.067 | [6] 0.018 | [7] -0.033 | [8] 0.037 | [9] -0.038 | [10] 0.013 | [11] 0.098 | [12] 0.048 | [13] -0.064 | [14] -0.012 | [15] 0.116 | [16] 0.075 | [17] -0.083 | [18] -0.049 | [19] -0.045

MTHFD1 (UniProt P11586)
inactive: [1] 0.06 | [2] 0.058 | [3] 0.074 | [4] -0.019 | [5] 0.019 | [6] -0.021 | [7] 0.05 | [8] 0.01 | [9] 0.013 | [10] 0.032 | [11] 0.01 | [12] -0.014 | [13] -0.068 | [14] -0.001 | [15] -0.082 | [16] -0.102 | [17] -0.005 | [18] -0.034 | [19] 0.073

MXRA8 isoform 2 (UniProt Q9BRK3)
inactive: [1] 0.02 | [2] 0.004 | [3] 0.142 | [4] 0.076 | [5] 0.032 | [6] 0.115 | [7] -0.279 | [8] 0.057 | [9] 0.048 | [10] 0.016 | [11] 0.054 | [12] 0.128 | [13] -0.16 | [14] -0.016 | [15] -0.162 | [16] 0.083 | [17] -0.083 | [18] -0.018 | [19] 0.021

MVD (UniProt P53602)
inactive: [1] 0.004 | [2] 0.05 | [3] 0.044 | [4] 0.033 | [5] 0.033 | [6] -0.006 | [7] 0.028 | [8] 0.02 | [9] -0.046 | [10] 0.079 | [12] 0.006 | [13] -0.043 | [14] -0.003 | [15] -0.013 | [16] 0.003 | [17] -0.021 | [18] -0.007 | [20] -0.014 | [19] 0.065

MYO9A isoform 4 (UniProt B2RTY4)
inactive: [1] -0.078 | [2] 0.001 | [3] -0.08 | [4] 0.046 | [5] -0.016 | [6] 0.01 | [8] 0.098 | [11] -0.129 | [12] 0.066 | [13] -0.044 | [15] -0.088 | [16] -0.004 | [18] 0.087

MYL12B (UniProt O14950)
inactive: [1] 0.016 | [2] 0.091 | [3] 0.02 | [4] 0.006 | [5] -0.072 | [6] -0.019 | [7] 0.157 | [8] 0.023 | [9] -0.045 | [10] 0.005 | [11] 0.047 | [12] 0.043 | [13] 0.067 | [14] 0.143 | [15] -0.013 | [16] 0.005 | [17] -0.015 | [18] 0.011 | [19] -0.004

MRPS16 (UniProt Q9Y3D3)
inactive: [1] -0.126 | [2] 0 | [3] -0.025 | [4] 0.159 | [5] 0.014 | [6] 0.079 | [7] 0.117 | [8] 0.044 | [9] -0.085 | [10] -0.097 | [11] -0.082 | [12] 0.02 | [13] -0.047 | [14] -0.008 | [15] -0.034 | [16] -0.19 | [17] 0.015 | [18] 0.021 | [19] -0.126

MTMR14 (UniProt Q8NCE2)
inactive: [1] -0.019 | [2] 0.009 | [3] 0.047 | [4] 0.037 | [5] 0.002 | [6] 0.009 | [7] -0.038 | [8] -0.05 | [9] -0.05 | [10] 0.028 | [11] 0.027 | [12] -0.069 | [13] -0.015 | [14] 0.004 | [15] 0.028 | [16] -0.04 | [17] -0.004 | [18] -0.041 | [19] -0.029

MRPS17 (UniProt Q9Y2R5)
inactive: [1] -0.034 | [2] -0.019 | [3] -0.125 | [4] 0.142 | [5] -0.062 | [6] 0 | [7] 0.042 | [8] 0.088 | [9] -0.014 | [10] -0.126 | [11] -0.192 | [12] 0.06 | [13] -0.029 | [14] 0.032 | [15] -0.054 | [16] 0.014 | [17] 0.025 | [18] -0.027 | [19] -0.2

MT-ND1 (UniProt P03886)
inactive: [1] -0.075 | [2] 0.031 | [3] -0.028 | [4] 0.097 | [5] -0.005 | [6] 0.032 | [7] 0.053 | [8] 0.12 | [9] -0.187 | [10] 0.018 | [11] 0.104 | [12] -0.009 | [13] -0.072 | [14] 0.071 | [15] -0.142 | [16] -0.142 | [17] -0.102 | [18] -0.092 | [19] 0.119

MTERF4 (UniProt Q7Z6M4)
inactive: [1] 0.162 | [2] -0.068 | [3] 0.058 | [4] -0.04 | [5] 0.059 | [7] -0.345 | [8] 0.04 | [9] 0.159 | [10] -0.181 | [11] -0.062 | [13] -0.012 | [14] -0.268 | [15] -0.104 | [16] 0.234 | [17] 0.239 | [18] -0.022 | [20] 0.012 | [19] 0.114

MRPS27 isoform 2 (UniProt Q92552)
inactive: [1] -0.044 | [2] -0.058 | [3] 0.018 | [4] 0.061 | [5] 0.056 | [6] 0.024 | [7] 0.074 | [8] 0.086 | [9] -0.048 | [10] -0.106 | [11] -0.116 | [12] 0.019 | [13] -0.002 | [14] 0.069 | [15] -0.104 | [16] -0.161 | [17] -0.011 | [18] -0.022 | [19] -0.06
